This assay can be described thus: qHTS Assay for Lipid Storage Modulators in Drosophila S3 Cells.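 For cell number change: cells counted by Cell Tracker Red CMTPX staining in the red channel.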 The note with it: BODIPY lipid droplet fluorescence, 18-24 h; for cell number change: measured here: cell count max response, cells fed with added oleic acid. The gist of the method:
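Drosophila S3 cells loaded with oleic acid (400 uM, as added) and compounds at several concentrations; lipid droplets imaged by 488-nm laser-scanning cytometry, 500–530 nm intensity and object ratio to cell channel. Percent activity normalized to 20 uM Triacsin C.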
For orientation: Quantitative high-throughput screening tests each substance at several concentrations.

The mark [1] stands for this setting: measured here: cell number channel AC50, cells fed with added oleic acid.
Where [2] appears, read: measured here: lipid fluorescence (Fed channel) AC50, cells fed with added oleic acid.

SMILES strings stand for the structures. The list shows a part of the results. Further columns of the screen follow, without active or inactive calls. Most of these compounds were active or inconclusive in the main read-out, so they are no random draw. Potencies come from curve fits of mixed quality, noted in brackets.

This note sets out measurements from PubChem BioAssay AID2685 (National Center for Advancing Translational Sciences (NCATS), 2010).

The term AC50 denotes the concentration at which the activity in the assay is half-maximal. For `CCC(=O)N1CCc2cc(S(=O)(=O)NCCC(=O)N3CCN(c4cccc(C)c4)C(C)C3)ccc21` (configuration not stated), the cell number change is -7.6%. Besides, the AC50 under setting [1] was 1640 nM [rising, partial curve, poor fit]. For the same molecule, the AC50 under setting [2] is 6510 nM [rising, single point]. On to `O=C(NNC(=O)c1ccc([N+](=O)[O-])o1)c1ccccc1`, for which the cell number change came out at 18%.

As to `CS(=O)(=O)N1CCN(c2nc3ccccc3s2)CC1`, the cell number change is -10%. For the same molecule, under setting [2], the AC50 was 6510 nM [rising, full curve, poor fit]. Consider `CCc1ccc(-c2cc(C)no2)cc1S(=O)(=O)N1CCN(c2ccccc2)CC1`, for which the cell number change came to 5.19%. Further, under setting [1], the AC50 was 6510 nM [rising, single point]. Moreover, under setting [2], the AC50 is 6510 nM [rising, single point]. On to `COC(=O)Cn1c2ccccc2c2nc3ccccc3nc21`, for which the cell number change was 4.21%. Also, the AC50 under setting [2] was 29100 nM [falling, single point]. For the molecule `N#Cc1ccccc1Sc1ccccc1C(=O)Nc1ccc(Br)cc1`, the cell number change came to 148%. Besides, the AC50 under setting [1] is 146 nM [rising, full curve, poor fit]. Also, the AC50 under setting [2] was 29100 nM [rising, single point]. Take `CN(Cc1ccccc1)C(=O)c1nc2ccccn2c1CNCCCOc1cccnc1`: the cell number change was determined as 10.2%. Further, under setting [2], the AC50 is 103 nM [rising, full curve, poor fit]. Consider `N#Cc1cc(Oc2ccc3ccccc3c2)c(-n2nnc3ccccc32)cc1C#N`, for which the cell number change is 12.5%. Moreover, the AC50 under setting [1] was 2910 nM [rising, partial curve]. Also, the AC50 under setting [2] was 5800 nM [rising, partial curve]. For the molecule `Cc1ccccc1-c1nn(-c2ccc(F)cc2F)cc1CNCCCO`, the cell number change stood at 13.6%. The AC50 under setting [2] is 2910 nM [rising, partial curve, poor fit]. As to `Cc1cccc(NCC(=O)N/N=C\c2cccc(Oc3ccccc3)c2)c1`, the cell number change is -25.4%. Under setting [2], the AC50 is 25900 nM [falling, single point]. Consider `O=C(Nc1ccc(F)cc1)c1cc(S(=O)(=O)N2CCOCC2)cs1`, for which the cell number change is -8.42%. Moreover, the AC50 under setting [2] was 29100 nM [falling, single point]. For `O=C(c1ccc(N2CCOCC2)cc1[N+](=O)[O-])N1CCOCC1`, the cell number change turned out to be 14%. For the same molecule, the AC50 under setting [2] was 2060 nM [rising, partial curve, poor fit]. Regarding `COc1ccc(-c2nc3n(n2)C(=O)CC(c2ccco2)S3)cc1` (configuration not stated), the cell number change is -24.5%. Besides, the AC50 under setting [2] is 29100 nM [falling, single point]. In the case of `COc1ccc2oc(=O)cc(CN(C)Cc3ccccc3)c2c1`, the cell number change was -1.23%. Besides, the AC50 under setting [2] is 18400 nM [falling, single point]. With `Cc1ccc(S(=O)(=O)n2nc(OC(=O)C(C)(C)C)cc2N)cc1`, the cell number change was found to be 3%. Also, under setting [2], the AC50 was 4110 nM [falling, full curve, poor fit].

Consider `c1ccc(N2CCN(Cc3nnnn3C3CCCCC3)CC2)cc1`, for which the cell number change is -2.93%. For the same molecule, the concentration at half-maximal activity (AC50) under setting [2] was 5.17 nM [rising, full curve, poor fit]. Take `O=C(Nc1ccncc1)c1ccccc1[N+](=O)[O-]`: the cell number change worked out at 8.5%. In addition, under setting [2], the AC50 was 6510 nM [falling, single point]. For `CCOc1ccccc1Nc1nc2ccccc2[nH]1`, the AC50 under setting [1] was 3260 nM [falling, partial curve]. For the molecule `O=C(O)C1C2C=CC3(CN(C/C=C/c4ccccc4)C(=O)C13)O2` (configuration not stated), the cell number change was 13.9%.

Take `CCCc1c(C(=O)N/N=C/c2ccncc2)nnn1-c1nonc1N`: the AC50 under setting [1] is 731 nM [rising, single point].

`COc1ccc(N2C(=O)C(=O)/C(=C(/O)c3ccc(C)cc3)C2c2cccnc2)cc1` (configuration not stated): the cell number change is 34.7%. Also, under setting [1], the AC50 was 29100 nM [rising, single point]. Take `FC(F)(F)c1ccccc1-n1ccnc1`: the cell number change turned out to be 4.03%. Besides, the AC50 under setting [2] is 580 nM [rising, single point]. For the molecule `CCCCNCc1nc2ccccc2c(=O)[nH]1`, the AC50 under setting [1] is 231 nM [rising, full curve, poor fit]. For `Cc1cc2nc(-c3ccc(SCC(=O)Nc4nccs4)nc3)[nH]c2cc1C`, the cell number change was -1.71%. The AC50 under setting [1] is 820 nM [rising, partial curve, poor fit]. Under setting [2], the AC50 was 3660 nM [rising, single point]. As for `COc1ccc(CCN2C(=O)C3C4CCC(C4=C(C)C)C3C2=O)cc1OC` (configuration not stated), the cell number change was found to be 11.8%. Besides, the AC50 under setting [2] is 29100 nM [rising, single point]. As for `COC(=O)c1ccc(OCC(O)CN(CC(C)C)CC(C)C)cc1` (configuration not stated), the cell number change was -13.2%. In addition, under setting [2], the AC50 is 4610 nM [rising, single point]. Turning to `Cc1ccc(C)c(NC(=O)CN(C)C(=O)Cn2c(=O)oc3ccccc32)c1`, the cell number change amounted to 7.86%. Besides, the AC50 under setting [2] was 116 nM [rising, full curve, poor fit]. For the molecule `Cc1cc(NC(=O)c2c(Cl)c(C)nn2C)no1`, the cell number change was -19%. As to `Cc1ccc(NC(=O)c2cccc(S(=O)(=O)N3CCCC3)c2)nc1`, the AC50 under setting [2] is 5800 nM [rising, single point]. Take `O=C(O)c1ccc(S(=O)(=O)c2ccc3c(c2)C(=O)N(NC(=O)c2ccncc2)C3=O)cc1`: the cell number change was 23.3%. In addition, under setting [2], the AC50 is 29100 nM [rising, single point]. Regarding `CSCC[C@H](NC(=O)OC(C)(C)C)c1nnc(SCC(=O)Nc2ccc(C)cc2C)o1`, the cell number change was -13.4%. In addition, the AC50 under setting [2] was 164 nM [rising, full curve, poor fit]. With `COC(=O)C1=C(C)N(Cc2ccccc2)C(=NCCCCO)N[C@H]1c1cccc(C(F)(F)F)c1`, the cell number change is 11.4%. `CCOC(=O)c1cc(NC(=O)SCC(=O)O)c(C)nc1C`: the AC50 under setting [1] is 1460 nM [rising, partial curve] and the AC50 under setting [2] was 1460 nM [rising, partial curve]. Turning to `CCC(=O)Nc1ccc2c(c1)nc(CCN1CCC(C)CC1)n2C`, the cell number change turned out to be 65.8%. Moreover, the AC50 under setting [1] is 92 nM [rising, full curve, poor fit]. Consider `CCN(CC)C(=O)c1ccc2nc3ccccc3nc2c1`, for which the AC50 is, setting by setting: under setting [1], 3660 nM [rising, single point]; under setting [2], 5.8 nM [rising, full curve, poor fit]. As to `O=C(NCc1nnc(SCC(=O)N2CCN(c3ccccc3)CC2)o1)c1c(F)cccc1F`, the AC50 under setting [2] is 7080 nM [falling, partial curve]. In the case of `N#CCCN(C(=O)COC(=O)CCNS(=O)(=O)c1ccccc1)c1ccccc1`, the cell number change was determined as 13.5%. The AC50 under setting [2] was 130 nM [rising, full curve, poor fit]. In the case of `CN(C)S(=O)(=O)c1ccc(N2CCCC2)c(C(=O)NC2CCC(O)CC2)c1` (configuration not stated), the cell number change stood at 44%. The AC50 under setting [1] was 16400 nM [rising, single point]. With `COCCN(CCOC)C(=O)c1c[nH]c2ccc(S(=O)(=O)N(C)c3ccc(F)cc3)cc2c1=O`, the cell number change was -17.1%. The AC50 under setting [2] was 8200 nM [rising, partial curve, poor fit]. With `O=C(Nc1cn(-c2ccccc2)nc1-c1ccc(Cl)cc1)c1ccccc1`, the cell number change was found to be 6.96%.

With `CC(C)(C)C(=O)/C(=C\c1cccc([N+](=O)[O-])c1)n1cncn1`, the cell number change is -79.8%. In addition, the AC50 under setting [1] was 7310 nM [falling, partial curve]. Further, the AC50 under setting [2] is 3260 nM [falling, full curve].

`CCOC(=O)c1c(C)oc2c1cc(NS(=O)(=O)c1ccc(C(=O)O)cc1)c1ccccc12`: the AC50 under setting [2] was 4.61 nM [rising, partial curve, poor fit]. For the molecule `COC(=O)CC1C(=O)NCCN1C(=S)NC(=O)CCc1ccccc1` (configuration not stated), the cell number change was -4.23%. For the same molecule, the AC50 under setting [2] was 100 nM [rising, full curve, poor fit]. Turning to `COc1ccc2nc(SCC(C)=O)c(C#N)cc2c1`, the AC50 under setting [2] is 731 nM [rising, full curve].

Take `CCc1ccccc1NC(=O)C1=CC(c2ccc(OC)c(OC)c2)=NS(=O)(=O)N1C`: the cell number change stood at 8.36%. In addition, under setting [2], the AC50 is 5.17 nM [rising, full curve, poor fit]. Regarding `CCN1CCN(Cc2c(O)ccc3c2O/C(=C\C=C\c2ccccc2)C3=O)CC1`, the cell number change was -6.19%. In addition, the AC50 under setting [2] is 184 nM [rising, full curve, poor fit]. Turning to `CCOc1ccc(CN(C)C(=O)CNC(=O)C2CCCCC2)cc1OC`, the cell number change was 12.1%. For the same molecule, under setting [2], the AC50 was 5.8 nM [rising, full curve, poor fit]. Take `O=C(NCCc1ccccc1)c1nc(CS(=O)(=O)c2ccc(Cl)cc2)no1`: the cell number change was determined as 2.42%. Regarding `O=C1c2ccccc2C(=O)N1c1ncc(Cc2ccc(Cl)cc2)s1`, the cell number change is -1.11%. For the same molecule, under setting [2], the AC50 was 3260 nM [rising, single point]. On to `CCCCN(Cc1ccccc1)S(=O)(=O)c1cc(Br)cc2c1N(C(C)=O)C(C)C2` (configuration not stated), for which the cell number change was -6.51%. Further, the AC50 under setting [2] was 1300 nM [rising, full curve]. Consider `COc1ccccc1-c1ccc(=O)n(CC(=O)NCc2ccco2)n1`, for which the cell number change was -27.6%. Moreover, the AC50 under setting [1] was 2910 nM [falling, full curve, poor fit]. Under setting [2], the AC50 was 29100 nM [falling, single point].

`Cc1cccc(Cn2cccc2/C=C2/C(=N)N3C=CSC3=NC2=O)c1`: the cell number change was -1.81%. Under setting [2], the AC50 was 461 nM [rising, full curve, poor fit]. Take `C=CCN1C(=O)C2(OCCCO2)c2cccc(C)c21`: the cell number change is -8.4%. Also, under setting [2], the AC50 was 23100 nM [rising, single point]. As to `CCC1(c2ccccc2)NC(=O)N(CC(=O)Nc2ccccc2C(=O)N2CCCCC2)C1=O` (configuration not stated), the cell number change turned out to be 7.41%. Also, the AC50 under setting [1] was 651 nM [falling, single point]. Besides, the AC50 under setting [2] is 18400 nM [rising, partial curve, poor fit]. Regarding `Cn1c(Oc2ccc3c(c2)OCO3)nc2c1c(=O)n(Cc1ccccc1)c(=O)n2C`, the cell number change was -0.414%. Moreover, the AC50 under setting [2] is 29100 nM [rising, single point]. Take `CCc1ccc(N(C(=O)c2csnn2)C(C(=O)NC2CCCCC2)c2ccncc2)cc1` (configuration not stated): the cell number change was -3.85%. Also, the AC50 under setting [2] was 116 nM [rising, single point]. In the case of `CC1=Nc2ccccc2N=C(NC(=O)CSc2nnnn2-c2ccccc2)C1c1ccccc1` (configuration not stated), the cell number change came out at 15.5%. In addition, the AC50 under setting [1] is 103 nM [rising, full curve, poor fit]. In addition, the AC50 under setting [2] is 326 nM [rising, partial curve, poor fit]. For the molecule `O=C(CN1C(=O)COc2ccc(S(=O)(=O)N3CCCCC3)cc21)NCc1ccc(F)cc1`, the cell number change worked out at 14.2%. The AC50 under setting [1] was 10.3 nM [rising, full curve, poor fit].
